Assay: Fmoc solid-phase peptide synthesis; 2-chlorotrityl chloride resin (loading 1.6 mmol/g); HBTU, DIEA, HOBt
Settings: whole synthesis, analytical HPLC

(Pro-Mop-Gly)10
final HPLC purity: >90%

— US7858741B2 (Wisconsin Alumni Research Foundation, priority 2008, dated 2010)
